# Paper PMC7819943, “Rice protein-binding microarrays: a tool to detect cis-acting elements near promoter regions in rice”
# The chains behind the UniProt entries cited, without tags or fusion partners.
# UniProt Q0JBA9, entry or part of it: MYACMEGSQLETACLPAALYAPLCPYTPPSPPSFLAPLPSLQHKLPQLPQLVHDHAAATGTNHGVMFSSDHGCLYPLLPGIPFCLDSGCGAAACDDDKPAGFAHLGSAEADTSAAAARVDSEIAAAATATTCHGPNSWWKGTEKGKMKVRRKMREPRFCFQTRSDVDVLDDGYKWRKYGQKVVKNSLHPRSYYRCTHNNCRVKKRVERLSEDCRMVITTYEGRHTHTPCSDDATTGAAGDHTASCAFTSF
# Some of the results follow.
# Target: OsWRKY34 (Oryza sativa, UniProt Q0JBA9 1-250)
# Test: protein-binding microarray (RPBM); PBS, 2% BSA, 51.3 ng/ul salmon testes DNA, 50 uM zinc acetate, 200 nM TF, 25 C, 1 h; high values mean tight binding
# Details: protein: recombinant; tags: N-terminal polyhistidine and DsRed monomer fusion (pET32a); label: CyDye5-dUTP incorporated in the synthesized complementary strand; 3' TTTTT single-stranded linker to array surface; dsDNA, one strand shown
# Summary of the method: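 Transcription factors, each fused N-terminally to a polyhistidine tag and DsRed, were expressed in E. coli BL21-CodonPlus and purified on Ni–NTA. A custom Agilent array was made double-stranded by primer extension with Cy5-dUTP and blocked with 2% BSA. It was incubated with 200 nM protein in PBS, 2% BSA, salmon testes DNA and 50 µM zinc acetate at 25 °C for 1 h, then washed. The binding signal is per-feature fluorescence intensity (arbitrary units) read on an Axon 4000B scanner.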
row,Sequence,binding signal
1,GCTTGGTCCATACCTTGTTTTCCTATCATCCACTGTCAATCGGAGTCACCTAGTGCAG,9390 fluorescence intensity (a.u.)
2,TTTTCACCAAACATGTTTGGGACCTTTGGGTAGGGGTGGGCGGAGTCACCTAGTGCAG,10600 fluorescence intensity (a.u.)
3,TACCTCTCACTCGTTCGACTTAAAGGACTGTTGTACCTGCCGGAGTCACCTAGTGCAG,9390 fluorescence intensity (a.u.)
4,CTCATCTCCCTTTCATATCCCCTGCTTCCTCTCCGTCCATCGGAGTCACCTAGTGCAG,10700 fluorescence intensity (a.u.)
5,CGGCAGCTTAATCCTCTCGTCATCTCCATCAATCCATCGTCGGAGTCACCTAGTGCAG,8110 fluorescence intensity (a.u.)
6,GAACTCCATTTTGCATTTTCGCTCCAGCTTTCACCCGTTTCGGAGTCACCTAGTGCAG,8040 fluorescence intensity (a.u.)
7,CGGATCAGTGCTTGTTCTATTATATCATATTGCTAGCCGACGGAGTCACCTAGTGCAG,8110 fluorescence intensity (a.u.)
8,AACAATGAACGGTCCAGATTTACTCTAAACCAATTTACCGCGGAGTCACCTAGTGCAG,8110 fluorescence intensity (a.u.)
9,TATTACACGCTCCCTTTCTTTGAGCGTATAGTTGAGAACACGGAGTCACCTAGTGCAG,8530 fluorescence intensity (a.u.)
10,ATCACCTTTGCCACCTCTCGCTACGCTATCCCCGTATAAACGGAGTCACCTAGTGCAG,10600 fluorescence intensity (a.u.)
11,AGTTTTGCCCATCTCGAAATCAGGTTTTGAGCTTAGCTGTCGGAGTCACCTAGTGCAG,9710 fluorescence intensity (a.u.)
12,CTTCTTCCATCCAACCCATTGCATGGTGTATTTTCCATATCGGAGTCACCTAGTGCAG,8320 fluorescence intensity (a.u.)
13,GGAAGATCCCTCGGCGTTTCTCACTGTTCTGTTGCCTTAACGGAGTCACCTAGTGCAG,14800 fluorescence intensity (a.u.)
14,TAACTGAAACCATTCTTCTCGTCGATCAAATCATCCAAGTCGGAGTCACCTAGTGCAG,9480 fluorescence intensity (a.u.)
15,GCTCATGTCTGACTCCTTTGTTTGCTCTTTGCTCATTTTACGGAGTCACCTAGTGCAG,8660 fluorescence intensity (a.u.)
16,AGTATGTACCTTTCGTTTTGACTTTGCCCTGCGAGCCATGCGGAGTCACCTAGTGCAG,12000 fluorescence intensity (a.u.)
17,CTCCACCGGCGAGTGCATCCGTACGGATCTCCCGGAGCTCCGGAGTCACCTAGTGCAG,8660 fluorescence intensity (a.u.)
18,CCCCATTTTTAAAACGAGTTGGAGCCAAACCCACTTCCAGCGGAGTCACCTAGTGCAG,8260 fluorescence intensity (a.u.)
19,ATTAATTTCTATTGGTCCAACTACATGCAATATTTATAACCGGAGTCACCTAGTGCAG,8130 fluorescence intensity (a.u.)
20,ATTTTGGTCAAATTTAAACTAATCTAAGTTTGACTAATTTCGGAGTCACCTAGTGCAG,8610 fluorescence intensity (a.u.)
21,TCCTCGGACTCTTCGTCGTTCCAAGTTCTCAAGTTCATCGCGGAGTCACCTAGTGCAG,9600 fluorescence intensity (a.u.)

# A second format for some results above.
row	Sequence	binding signal
12	CTTCTTCCATCCAACCCATTGCATGGTGTATTTTCCATATCGGAGTCACCTAGTGCAG	8320 fluorescence intensity (a.u.)
13	GGAAGATCCCTCGGCGTTTCTCACTGTTCTGTTGCCTTAACGGAGTCACCTAGTGCAG	14800 fluorescence intensity (a.u.)
14	TAACTGAAACCATTCTTCTCGTCGATCAAATCATCCAAGTCGGAGTCACCTAGTGCAG	9480 fluorescence intensity (a.u.)

# Looked up one by one from the entries so far:
row,Sequence,binding signal
15,GCTCATGTCTGACTCCTTTGTTTGCTCTTTGCTCATTTTACGGAGTCACCTAGTGCAG,8660 fluorescence intensity (a.u.)
1,GCTTGGTCCATACCTTGTTTTCCTATCATCCACTGTCAATCGGAGTCACCTAGTGCAG,9390 fluorescence intensity (a.u.)
5,CGGCAGCTTAATCCTCTCGTCATCTCCATCAATCCATCGTCGGAGTCACCTAGTGCAG,8110 fluorescence intensity (a.u.)

# (listing goes on)

row,Sequence,binding signal
1,CCCGTCCCTAATTAACCGCCGTTCCTCTCGCGCCTCACCACGGAGTCACCTAGTGCAG,9550 fluorescence intensity (a.u.)
2,GTTTCCATAGCATTACACTTTTGTAACTATTATTGTTTTGCGGAGTCACCTAGTGCAG,9760 fluorescence intensity (a.u.)
3,ATTGGTAGTTTTTTTGTGTGTATGAAAGTTTTCGATGTGACGGAGTCACCTAGTGCAG,8070 fluorescence intensity (a.u.)
4,CGCGACGACGACTAGTTTATTTTGCACCACGTACGCACACCGGAGTCACCTAGTGCAG,8700 fluorescence intensity (a.u.)
5,AGGCTAATCCAATCACCGAGCGCCACTTGTCTTCGTCTTCCGGAGTCACCTAGTGCAG,8430 fluorescence intensity (a.u.)
6,CCTCCGTTTCTATATATTTAATATTGTTGACTTTTTAGCACGGAGTCACCTAGTGCAG,12000 fluorescence intensity (a.u.)
7,CCTCCTATCCAAATTCCAACTTTCTTTGTTGTCTCACTTTCGGAGTCACCTAGTGCAG,11300 fluorescence intensity (a.u.)
8,TGTTCTAATGATCTTCTGTTCACCCTGCTTCTGATTTTTACGGAGTCACCTAGTGCAG,10500 fluorescence intensity (a.u.)
9,CTTGAAGTCCATTGCACACTGTTTTTCCTCTCTCAACTATCGGAGTCACCTAGTGCAG,10200 fluorescence intensity (a.u.)
10,GTGCCTACTGTCAGGTATGCAATCGATCCGGTCACGCAGCCGGAGTCACCTAGTGCAG,8150 fluorescence intensity (a.u.)
11,TTTTTTTTCACTATGCTTAGCACTCGTTTCACTATGCTTACGGAGTCACCTAGTGCAG,8310 fluorescence intensity (a.u.)
12,CAAGAACGTGCTTTGTTTTGATCTATGTTGCAACATCATCCGGAGTCACCTAGTGCAG,8480 fluorescence intensity (a.u.)
13,GTGGTAGTCGAACGTGCCGAGCGAGTAGGTGGGGCGGGCGCGGAGTCACCTAGTGCAG,11700 fluorescence intensity (a.u.)
14,TCGACTTGTATACGCACACTGCAACTTGCTTGCTTCCTCACGGAGTCACCTAGTGCAG,11200 fluorescence intensity (a.u.)
15,TCTGATTCGTTGGGTTGTGTGATGTGCAAAAGCTTAGGTTCGGAGTCACCTAGTGCAG,8200 fluorescence intensity (a.u.)
16,CCCTCGGTCCACCTGCACCCACCGCTCTCAGTCACCTCCTCGGAGTCACCTAGTGCAG,9580 fluorescence intensity (a.u.)
17,CACATGTCATTCACCCATAAAGACAGTTTGTGATGTTGCTCGGAGTCACCTAGTGCAG,8530 fluorescence intensity (a.u.)
18,AACCCTATACCCTCAAGGGCTATTGTGCAAAACCCCGTTCCGGAGTCACCTAGTGCAG,8340 fluorescence intensity (a.u.)
19,ACGTCCACGAGTCCATGTCATGACACACCCCAAGTTGCTGCGGAGTCACCTAGTGCAG,8470 fluorescence intensity (a.u.)
20,AATTGCACTGGATCAATAAGTAATCGTCTTCTATACTTTCCGGAGTCACCTAGTGCAG,10200 fluorescence intensity (a.u.)
21,GGAATTTAGCATTTCGCTGGAGCATTCATGTATATGACTTCGGAGTCACCTAGTGCAG,8700 fluorescence intensity (a.u.)

row,Sequence,binding signal
1,CTTTTCTGCACACTTTGTCCTCACTCAGCGCATGTGCCATCGGAGTCACCTAGTGCAG,9150 fluorescence intensity (a.u.)
2,CACCCAACCTGCTGACTCATCATGTGGCACTAGCTTCTCTCGGAGTCACCTAGTGCAG,10600 fluorescence intensity (a.u.)
3,ATCCATCCATCGATCGATTTTGCCTTGCCAGTTTTCATCCCGGAGTCACCTAGTGCAG,13100 fluorescence intensity (a.u.)
4,CGATACAATAGCTAGGGTTGGCTTTGGGCTTTGGCGCGGCCGGAGTCACCTAGTGCAG,8900 fluorescence intensity (a.u.)
5,GTTAGTTGTGTAGGGCATCTTCTTAATTTGTTTTTGTTTTCGGAGTCACCTAGTGCAG,14800 fluorescence intensity (a.u.)
6,ATCGTCTCACTGTCTCACCGATCGAGCTAGCTCTCGTCGGCGGAGTCACCTAGTGCAG,8370 fluorescence intensity (a.u.)
7,CATGCTCGCGGTCGCCGCCGCGCGCCACGTCGCGCCTTCACGGAGTCACCTAGTGCAG,8680 fluorescence intensity (a.u.)
8,CCTCAAAACCTCCGAGGGACCTCGTTTGCCCGGTTTTCATCGGAGTCACCTAGTGCAG,8190 fluorescence intensity (a.u.)
9,ATAAATTTCCGTATCCAACGTTTTATGGTCTGTTTTATTTCGGAGTCACCTAGTGCAG,11200 fluorescence intensity (a.u.)
10,CCCACCCGCGCTTCTTCGCCACCGCCTGACCTCCACCCTGCGGAGTCACCTAGTGCAG,8140 fluorescence intensity (a.u.)
11,GCTGTCAACCGTCCAGCCAATCCCACGCTCACACCTGCCACGGAGTCACCTAGTGCAG,12100 fluorescence intensity (a.u.)
12,CCCACCACCCGCCCCGCTCGCCGACGCGGCGGCCATGGCGCGGAGTCACCTAGTGCAG,10100 fluorescence intensity (a.u.)
13,TGCTTGTAACGTTTGATCACTCGTCTTATTCAATTTTTTTCGGAGTCACCTAGTGCAG,8150 fluorescence intensity (a.u.)
14,TCGATCGGTTGGTTGGTTGGTTTTGTTGGATTTTTTTCCTCGGAGTCACCTAGTGCAG,18700 fluorescence intensity (a.u.)
15,ATTGTTGTGAGTTCTGGCTTGTGGTTTGTTCGAATTCTGGCGGAGTCACCTAGTGCAG,8670 fluorescence intensity (a.u.)
16,AACCGTACAATTTTTCTTTTTGCTTTTCTTCCTGCCATATCGGAGTCACCTAGTGCAG,9890 fluorescence intensity (a.u.)
17,CCTCTTTTTCTTTCTTTCTTGCGGAGGCGGAAGGTAGGGGCGGAGTCACCTAGTGCAG,11800 fluorescence intensity (a.u.)
18,TCTCCTCTTTAAATTTCTCGCGCTGTTGTTGTTGTGATTTCGGAGTCACCTAGTGCAG,8890 fluorescence intensity (a.u.)
19,CGGTGGAGGCAGGCGTGGCGGGCGACGAGGAGAGGGGTGGCGGAGTCACCTAGTGCAG,8570 fluorescence intensity (a.u.)
20,CTAGTAGCTATTGACTTGGCCGCCAGAGTCGATGGTTGACCGGAGTCACCTAGTGCAG,9120 fluorescence intensity (a.u.)
21,TTTACTCATAAATATTGTTTGGAATTTCTCTGCGTATATTCGGAGTCACCTAGTGCAG,8140 fluorescence intensity (a.u.)

row,Sequence,binding signal
1,TCTTGGGGACATGTAGCAATTTCCAGTCATTTGCCCCTTTCGGAGTCACCTAGTGCAG,9210 fluorescence intensity (a.u.)
2,GCCTCATCCGATTTTGTTGCTAGTGAGTTTTTGAATATGCCGGAGTCACCTAGTGCAG,8200 fluorescence intensity (a.u.)
3,CAGTAAACATTAAAGCAAATCCGTCTCCAACTTGACTGCCCGGAGTCACCTAGTGCAG,8460 fluorescence intensity (a.u.)
4,GCTCACCTAACCCATTCACGTGGCGCCAAACCCTCAGGGGCGGAGTCACCTAGTGCAG,8250 fluorescence intensity (a.u.)
5,CTCGTAGCGCTCGACCTCCTGCTTCTTCTCGTCGTCGTCGCGGAGTCACCTAGTGCAG,8350 fluorescence intensity (a.u.)
6,GGCAACTCATGGTGTATGATGGATGGATATCGTTGTTTGCCGGAGTCACCTAGTGCAG,8060 fluorescence intensity (a.u.)
7,TGCCCTCCTTCTTCGTCTTCGTGAGATCATCTTGTCCCAACGGAGTCACCTAGTGCAG,8510 fluorescence intensity (a.u.)
8,CCGCAACCCGCGCCGTCGACTTCCTCGCCAACGTAAGCCACGGAGTCACCTAGTGCAG,8820 fluorescence intensity (a.u.)
9,ATCTTATCCGTCCATATGCCATCTCATCCCACTCCACCGACGGAGTCACCTAGTGCAG,10400 fluorescence intensity (a.u.)
10,TTCTTCCCAGCCAGTGTTCCTAGTATCCATTCTCTCTCAACGGAGTCACCTAGTGCAG,9850 fluorescence intensity (a.u.)
11,GGCCCGAACCTGTATAGATCGTCGGTGTCTCGTGTTTTCTCGGAGTCACCTAGTGCAG,9600 fluorescence intensity (a.u.)
12,ATTTATTTCTAATAGGAGTTGAGTTGGTTTTCGTGTTCCGCGGAGTCACCTAGTGCAG,8480 fluorescence intensity (a.u.)
13,CCCAGCCCACTAAAACCACACTCCGATCCGAAACCGTCTTCGGAGTCACCTAGTGCAG,10500 fluorescence intensity (a.u.)
14,CTCGTGTGTCTTGCGGGCGGGTGATCTTTCCACATACAGACGGAGTCACCTAGTGCAG,19200 fluorescence intensity (a.u.)
15,GCTTTAATTCCTTCCCTTTTTTTCTTCTCCCCAAAACTTACGGAGTCACCTAGTGCAG,8110 fluorescence intensity (a.u.)
16,CCGAGCAAGTGCACAACTTCTCCTACCCATTGCTGGAAACCGGAGTCACCTAGTGCAG,8790 fluorescence intensity (a.u.)
17,ACCAAGATTTTTTTTAGCCATTTGACGCGCTTTATCGATACGGAGTCACCTAGTGCAG,10200 fluorescence intensity (a.u.)
18,TGACAGATGATTGCCTTTCGAACTACTAAGCTTTTTCTCACGGAGTCACCTAGTGCAG,9500 fluorescence intensity (a.u.)
19,GTGCATCGTGTGTGTGTTTGTTGTTAACGCGTCCGTCGCACGGAGTCACCTAGTGCAG,9290 fluorescence intensity (a.u.)
20,AATCACATTCTCAAGTCCTCACACATTCAATGCTGTAGATCGGAGTCACCTAGTGCAG,8290 fluorescence intensity (a.u.)
21,ATAGTACTTTATGCATCACTTATTATTTTTATTGTTTTTACGGAGTCACCTAGTGCAG,8780 fluorescence intensity (a.u.)
